PubChem BioAssay AID1259254, NCATS – 2017
This is a random part of about 59,000 deposited reagents. About 1,550 of all reagents (2.6%) were called active. 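G2 share is only a proxy for re-replication; each gene was hit by three separate siRNAs, and active genes were retested.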 Unmarked entries are inactive. Reagents against one gene are numbered here. Further read-outs or replicates are left out here. Not stated in the record: the amount of reagent.

Aim: 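Genome-wide screen for genes that prevent DNA re-replication in cancer cells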 (primary screen)
System: human HCT116 colorectal cancer cells
Reagent: single siRNA against human genes
Duration: 3 days
Measured: 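Nuclei stained with Hoechst and imaged; cell-cycle phase assigned by DNA content; G2 share scaled per plate, non-targeting siRNA 0%, GMNN siRNA 100%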
Reading the numbers: G2 robust z-score and G2 cells, % of GMNN control: higher = more G2 cells, more excess DNA replication
Rule for the call: 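An siRNA counts as active if its G2 robust z-score lies at least 5 MADs above the screen median; here such calls match roughly 38% of GMNN control or more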

| target gene | reagent no. | G2 robust z-score | G2 cells, % of GMNN control |
| --- | --- | --- | --- |
| ADAMDEC1 | 1 | -0.826 | -2.84 |
| ADAMDEC1 | 2 | 3 | 24.1 |
| ADAMDEC1 | 3 | 0.153 | 4.05 |
| LRRC8A | 1 | -0.655 | -1.64 |
| LRRC8A | 2 | -0.765 | -2.42 |
| LRRC8A | 3 | -0.124 | 2.09 |
| ASXL1 | 1 | 1.46 | 13.3 |
| ASXL1 | 2 | 1.49 | 13.4 |
| ASXL1 | 3 | -0.323 | 0.695 |
| ZNF429 | 1 | 0.466 | 6.25 |
| ZNF429 | 2 | 0.879 | 9.15 |
| ZNF429 | 3 | 0.147 | 4 |
| GAS7 | 1 | -0.608 | -1.31 |
| GAS7 | 2 | -0.276 | 1.03 |
| GAS7 | 3 | 0.233 | 4.6 |
| RPL35 | 1 | 10.2 (active) | 74.5 |
| RPL35 | 2 | 3.37 | 26.7 |
| RPL35 | 3 | -0.0663 | 2.5 |
| CCDC47 | 1 | 0.896 | 9.27 |
| CCDC47 | 2 | 2.22 | 18.6 |
| CCDC47 | 3 | -0.201 | 1.56 |
| FABP5P9 | 1 | -0.367 | 0.384 |
| FABP5P9 | 2 | -1.04 | -4.35 |
| FABP5P9 | 3 | 0.136 | 3.93 |
| PHF5A | 1 | 0.532 | 6.71 |
| PHF5A | 2 | 1.12 | 10.8 |
| PHF5A | 3 | 2.86 | 23.1 |
| HIC1 | 1 | 2.35 | 19.5 |
| HIC1 | 2 | 2.08 | 17.6 |
| HIC1 | 3 | 1.8 | 15.6 |
| SOX13 | 1 | -0.454 | -0.224 |
| SOX13 | 2 | 0.665 | 7.64 |
| SOX13 | 3 | 0.166 | 4.13 |
| RPS10P29 | 1 | 0.812 | 8.68 |
| RPS10P29 | 2 | 1.54 | 13.8 |
| RPS10P29 | 3 | -0.668 | -1.73 |
| LINC02667 | 1 | -0.29 | 0.928 |
| LINC02667 | 2 | -0.694 | -1.92 |
| LINC02667 | 3 | 0.236 | 4.63 |
| SELENOI | 1 | -0.763 | -2.4 |
| SELENOI | 2 | -0.455 | -0.235 |
| SELENOI | 3 | 1.64 | 14.5 |
| CUL2 | 1 | 1.16 | 11.2 |
| CUL2 | 2 | -0.537 | -0.809 |
| CUL2 | 3 | 0.159 | 4.09 |
| KSR2 | 1 | 1.27 | 11.9 |
| KSR2 | 2 | -0.646 | -1.57 |
| KSR2 | 3 | -0.821 | -2.81 |
| LINC02523 | 1 | 0.35 | 5.43 |
| LINC02523 | 2 | -0.382 | 0.282 |
| LINC02523 | 3 | 0.431 | 6 |

The list goes on (6 carried over from the part before).
| target gene | reagent no. | G2 robust z-score | G2 cells, % of GMNN control |
| --- | --- | --- | --- |
| KSR2 | 1 | 1.27 | 11.9 |
| KSR2 | 2 | -0.646 | -1.57 |
| KSR2 | 3 | -0.821 | -2.81 |
| LINC02523 | 1 | 0.35 | 5.43 |
| LINC02523 | 2 | -0.382 | 0.282 |
| LINC02523 | 3 | 0.431 | 6 |
| EHMT1 | 1 | -0.909 | -3.43 |
| EHMT1 | 2 | -0.993 | -4.02 |
| EHMT1 | 3 | -1.16 | -5.21 |
| EHMT1 | 4 | 2.57 | 21.1 |
| EHMT1 | 5 | -0.556 | -0.941 |
| EHMT1 | 6 | -0.251 | 1.2 |
| MEP1B | 1 | -0.872 | -3.17 |
| MEP1B | 2 | 1.42 | 12.9 |
| MEP1B | 3 | -0.203 | 1.54 |
| CCDC144BP | 1 | 1.26 | 11.8 |
| CCDC144BP | 2 | -0.911 | -3.44 |
| CCDC144BP | 3 | 0.932 | 9.52 |
| FZD2 | 1 | 0.0192 | 3.1 |
| FZD2 | 2 | -1.32 | -6.34 |
| FZD2 | 3 | -0.759 | -2.37 |
| PKP4 | 1 | -1.12 | -4.9 |
| PKP4 | 2 | 1.56 | 13.9 |
| PKP4 | 3 | -0.473 | -0.361 |
| RBL1 | 1 | -0.258 | 1.15 |
| RBL1 | 2 | 4.1 | 31.8 |
| RBL1 | 3 | -0.795 | -2.62 |
| EIF5A2 | 1 | 0.686 | 7.79 |
| EIF5A2 | 2 | -0.63 | -1.47 |
| EIF5A2 | 3 | 1.17 | 11.2 |
| MPZ | 1 | 0.958 | 9.71 |
| MPZ | 2 | -0.463 | -0.289 |
| MPZ | 3 | -0.232 | 1.33 |
| THOC1 | 1 | 1.11 | 10.8 |
| THOC1 | 2 | -0.182 | 1.69 |
| THOC1 | 3 | -0.215 | 1.46 |
| NIPAL2 | 1 | -0.886 | -3.27 |
| NIPAL2 | 2 | 0.878 | 9.14 |
| NIPAL2 | 3 | 6.6 (active) | 49.4 |
| TNS4 | 1 | 2.93 | 23.6 |
| TNS4 | 2 | 0.782 | 8.47 |
| TNS4 | 3 | 1.96 | 16.8 |
